The record followed here is paper doi:10.1101/2024.09.08.611708.

Results are given in words; binding and its absence hold for the method and conditions named. Binding seen in cells or lysates may run through a third protein. Binding can be weak; no strength is given.

This assay has as its target T1, AtATG8A (recombinant, pull-down) (A. thaliana) (UniProt Q8LEM4).
T1 sequence: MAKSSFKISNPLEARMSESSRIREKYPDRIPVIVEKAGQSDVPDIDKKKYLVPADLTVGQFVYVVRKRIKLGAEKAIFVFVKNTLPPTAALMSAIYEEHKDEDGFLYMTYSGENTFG
Put plainly: pull-down.

AtCESAR2 (recombinant) (A. thaliana): the binding entry is on record as “binds”.

For AtCESAR2^4A (A. thaliana), the binding result is recorded as “no binding”.
